{"source": "paper PMC7062782", "about": "“A progesterone biosensor derived from microbial screening” (Nature Communications, 2020)", "key": {"[1]": {"target": "T1, SRTF1 (Pimelobacter simplex ATCC 6946) (UniProt A0A0A1DUF2)", "T1 sequence (looked up, limits assumed)": "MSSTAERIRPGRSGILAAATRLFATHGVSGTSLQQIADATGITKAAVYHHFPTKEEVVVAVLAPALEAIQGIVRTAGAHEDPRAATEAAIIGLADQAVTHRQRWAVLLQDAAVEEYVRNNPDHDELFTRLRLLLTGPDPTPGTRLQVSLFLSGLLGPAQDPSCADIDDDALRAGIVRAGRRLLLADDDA", "experiment": "BLI", "conditions": "BLI: 28 mM Tris-HCl pH 8.0, 4.25% glycerol, 25 mM NaCl, 1.67 mg/mL BSA, 30 C, recombinant protein, protein details: C-terminal 6xHis, label: 5' biotin on strand 1"}, "[2]": {"target": "T1, SRTF1 (Pimelobacter simplex ATCC 6946)", "experiment": "QD-FRET", "conditions": "QD-FRET: 1x HEPES with binding buffer (5x: 25 mM MgCl2, 25% glycerol, 250 mg/L salmon sperm DNA, 0.1 M Tris-HCl), RT, recombinant protein, protein details: C-terminal 6xHis, label: 5' and 3' Cy5 on strand 1; for IC50: progesterone titration releasing DNA (IC50 is of progesterone)"}, "[3]": {"system": "SRTF1_MUT1 (Pimelobacter simplex ATCC 6946)", "experiment": "QD-FRET", "conditions": "sensor 3 with progesterone titration (IC50 in Supplementary Table 5, value not in material); QD-FRET: 1x HEPES with binding buffer (5x: 25 mM MgCl2, 25% glycerol, 250 mg/L salmon sperm DNA, 0.1 M Tris-HCl), RT; recombinant protein; label: 5' and 3' Cy5 on strand 1"}}, "note": "For some of these results: Negatives hold for the conditions tested. For some of these results: At least one verdict rests on a figure or table, not on a statement of the authors. For some of these results: Where a protein sequence is shown, tags need not be part of it. For some of these results: Weaker means in comparison with the reference protein, sequence or condition of that experiment. The exact form of at least one protein or probe is not confirmed. For some of these results: Whether high values mean tight binding is not given here for every scale."}
{"sequence": "AAATTGTCCCGGGCCTTTCTCCGCGAACTAGCCGTTCGGCTAGTTTACTC (double strand) [BLI-SRTF1o]", "values": [{"measurement": "binding signal (% dissociated at 30 s)", "setting": "[1]; 5 uM progesterone", "value": 81}]}
{"sequence": "GCCTAACTAGCCGTTCGGCTAGTTATTC (double strand) [DNA1-Cy5]", "values": [{"measurement": "IC50", "setting": "[2]; sensor 1, QD/TF/DNA 1/4/18", "value": 738, "unit": "nM"}]}
{"sequence": "AAATTGTCCCGGGCCTTTCTCCGCGAACTAGCCGTTCTGTTAGTTTACTC (double strand) [BLI-SRTF1o-13,15-T,T]", "values": [{"measurement": "binding result", "setting": "[1]; no steroid, Kd in Supplementary Table 2 (value not in material)", "value": "binds more weakly"}]}
{"sequence": "GCCTAACTAGCCGTTCTGTTAGTTATTC (double strand) [DNA2-Cy5]", "values": [{"measurement": "IC50", "setting": "[2]; sensor 2, QD/TF/DNA 1/4/18", "value": 133, "unit": "nM"}, {"measurement": "IC50", "setting": "[2]; sensor 3, QD/TF/DNA 1/1/18", "value": 57, "unit": "nM"}, {"measurement": "binding result", "setting": "[3]", "value": "binds"}]}
{"sequence": "TGTGCGTGTCCCTCGCTCGGTTTCACGA (double strand) [Scbd-Cy5]", "values": [{"measurement": "binding result", "setting": "[2]; no response to progesterone titration", "value": "no binding"}]}
